## Primary screen of a compound library

By UniProt entry, the sequences of proteins in these tests, tags left out. Residues count along the entry.
UniProt P9WNZ1, whole entry: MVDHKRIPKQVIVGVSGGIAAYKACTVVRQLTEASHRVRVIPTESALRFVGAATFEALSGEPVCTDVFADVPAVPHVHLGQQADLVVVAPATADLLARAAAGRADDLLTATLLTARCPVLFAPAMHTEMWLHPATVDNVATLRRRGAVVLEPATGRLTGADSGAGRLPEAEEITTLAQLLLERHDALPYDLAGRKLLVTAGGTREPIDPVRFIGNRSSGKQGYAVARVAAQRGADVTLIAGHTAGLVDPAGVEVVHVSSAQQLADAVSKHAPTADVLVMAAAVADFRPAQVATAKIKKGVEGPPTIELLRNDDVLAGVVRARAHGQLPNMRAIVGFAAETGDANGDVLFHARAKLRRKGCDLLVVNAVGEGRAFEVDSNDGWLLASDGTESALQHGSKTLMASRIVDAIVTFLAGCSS
UniProt P9WFT3, whole entry: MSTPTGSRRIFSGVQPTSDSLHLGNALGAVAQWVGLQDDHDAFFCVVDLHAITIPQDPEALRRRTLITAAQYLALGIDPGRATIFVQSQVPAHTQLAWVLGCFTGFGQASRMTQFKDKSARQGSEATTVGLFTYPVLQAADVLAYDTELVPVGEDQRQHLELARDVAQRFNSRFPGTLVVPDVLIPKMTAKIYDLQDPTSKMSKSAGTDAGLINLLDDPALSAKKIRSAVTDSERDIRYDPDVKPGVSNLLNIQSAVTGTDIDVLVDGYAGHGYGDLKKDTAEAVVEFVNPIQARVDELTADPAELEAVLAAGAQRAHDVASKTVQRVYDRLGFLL
UniProt P9WPC5, whole entry: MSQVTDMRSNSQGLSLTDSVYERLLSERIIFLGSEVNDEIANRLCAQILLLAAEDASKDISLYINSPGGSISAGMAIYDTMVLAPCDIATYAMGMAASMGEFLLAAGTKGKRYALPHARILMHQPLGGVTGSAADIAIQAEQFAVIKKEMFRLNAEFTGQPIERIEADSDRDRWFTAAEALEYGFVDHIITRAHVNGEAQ
UniProt P9WPC3, whole entry partner: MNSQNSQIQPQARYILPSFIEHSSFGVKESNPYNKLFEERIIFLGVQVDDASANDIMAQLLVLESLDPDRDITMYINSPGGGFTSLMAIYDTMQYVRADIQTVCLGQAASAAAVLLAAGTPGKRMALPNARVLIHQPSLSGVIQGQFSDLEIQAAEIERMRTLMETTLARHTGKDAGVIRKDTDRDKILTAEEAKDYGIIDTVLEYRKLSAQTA
UniProt A4I591, 1-473: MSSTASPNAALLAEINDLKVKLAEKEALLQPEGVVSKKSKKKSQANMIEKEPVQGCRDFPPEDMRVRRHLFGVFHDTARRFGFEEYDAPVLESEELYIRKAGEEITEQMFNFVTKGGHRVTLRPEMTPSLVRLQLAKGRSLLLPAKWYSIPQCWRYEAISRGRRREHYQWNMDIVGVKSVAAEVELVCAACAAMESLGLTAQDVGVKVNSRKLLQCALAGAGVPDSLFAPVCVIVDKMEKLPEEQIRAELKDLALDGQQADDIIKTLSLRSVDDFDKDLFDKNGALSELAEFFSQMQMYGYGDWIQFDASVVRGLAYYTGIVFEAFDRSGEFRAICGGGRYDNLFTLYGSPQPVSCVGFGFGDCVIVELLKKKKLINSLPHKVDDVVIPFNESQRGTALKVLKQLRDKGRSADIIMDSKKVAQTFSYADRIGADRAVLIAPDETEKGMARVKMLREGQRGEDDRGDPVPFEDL
UniProt Q4DA54, 1-478: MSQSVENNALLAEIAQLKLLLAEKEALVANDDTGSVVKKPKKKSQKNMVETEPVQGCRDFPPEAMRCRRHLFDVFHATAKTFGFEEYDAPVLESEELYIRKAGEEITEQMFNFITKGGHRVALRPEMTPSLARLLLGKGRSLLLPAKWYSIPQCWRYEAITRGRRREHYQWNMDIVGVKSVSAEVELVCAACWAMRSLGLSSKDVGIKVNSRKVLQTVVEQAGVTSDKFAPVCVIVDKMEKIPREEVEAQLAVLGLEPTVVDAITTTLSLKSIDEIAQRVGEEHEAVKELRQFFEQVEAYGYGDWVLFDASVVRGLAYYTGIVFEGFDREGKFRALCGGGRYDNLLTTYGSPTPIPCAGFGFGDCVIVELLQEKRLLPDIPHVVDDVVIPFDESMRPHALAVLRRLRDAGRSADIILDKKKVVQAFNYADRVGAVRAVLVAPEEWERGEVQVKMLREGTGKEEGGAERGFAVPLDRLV

CoaBC: 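Coenzyme A biosynthesis protein CoaBC, Mycobacterium tuberculosis (UniProt P9WNZ1). Enzyme assay of CoaBC with a phosphate dye (Biomol Green) read at 650 nm. Compounds at 30 µM. Higher reads as stronger inhibition, judged from the few compounds that gave an IC50. Most strong results did not repeat in a second test. Of about 67,000 compounds tested this way, about 40 (0.06%) reached 50% or more in at least one test.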
MtTrpRS: 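Enzyme assay of tryptophanyl-tRNA synthetase; the read-out is not stated. Target: Tryptophan-tRNA ligase, Mycobacterium tuberculosis (UniProt P9WFT3). Compounds at 10 µM. Higher most likely means stronger inhibition; the record gives no direction and few retests gave an IC50. Of about 65,000 compounds tested this way, about 64 (0.098%) reached 50% or more in at least one test.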
ClpP1P2: 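ClpP1P2, Mycobacterium tuberculosis (UniProt P9WPC5 and UniProt P9WPC3). Protease assay of ClpP1P2, read by the AMC dye that it sets free. Tested at 50 µM. Higher reads as stronger inhibition, judged from the few compounds that gave an IC50. Most other retested compounds had strongly negative values. About 69,000 compounds were tested under these conditions; 0.015% (about 10) showed 50% or more at least once.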
LiHisRS: 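Histidine-tRNA ligase, Leishmania infantum (UniProt A4I591). Enzyme assay of histidyl-tRNA synthetase; the read-out is not stated. Compounds at 30 µM. The record gives no direction; compounds that gave an IC50 in retests scored well above the rest, so higher reads as stronger inhibition. The assay is labelled LdHisRS but filed under L. infantum. About 69,000 compounds were tested under these conditions; 0.6% (about 410) showed 50% or more at least once.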
TcHisRS: 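Enzyme assay of histidyl-tRNA synthetase; the read-out is not stated. Target: Histidine-tRNA ligase, Trypanosoma cruzi CL Brener (UniProt Q4DA54). Compounds at 30 µM. The record gives no direction; compounds that gave an IC50 in retests scored well above the rest, so higher reads as stronger inhibition. Of about 69,000 compounds tested this way, about 31 (0.045%) reached 50% or more in at least one test.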

Each number is a percent effect as filed. The record does not define 0% and 100%; most values in the screen are far below 50% and negative numbers occur (in some assays of this library far below -100). The compounds are a random part of those screened.

- C/N=C1\c2cc3cc(OC)ccc3n2CCN1Cc1ccccc1 : CoaBC: 14.94%; MtTrpRS: 0.4772%; ClpP1P2: 6.435%; LiHisRS: 31.58%; TcHisRS: 10.98%
- Cc1cccc(CN2C(=O)CCC23CCN(c2ncc(F)cn2)CC3)n1 : CoaBC: 1.935%; MtTrpRS: 4.351%; ClpP1P2: 6.343%; LiHisRS: 26.83%; TcHisRS: 8.271%
- O=C(c1c2c(N3CCCC3)ncnc2n2ccccc12)N1CCOCC1 : CoaBC: 1.426%; MtTrpRS: -4.689%; ClpP1P2: -306.1%; LiHisRS: 5.263%; TcHisRS: 2.299%
- Cc1ccc(N2CCCC(N(C)Cc3noc(C4CC4)n3)C2)nn1 (centres undefined) : CoaBC: 4.059%; MtTrpRS: -1.065%; ClpP1P2: -7.033%; LiHisRS: 8.065%; TcHisRS: 10.34%
- CCc1cnc(CN(C(C)=O)C2CCN(CCc3ccccc3)C2)o1 (centres undefined) : CoaBC: 3.704%; MtTrpRS: 4.035%; ClpP1P2: -21.73%; LiHisRS: 22.32%; TcHisRS: 1.156%
- CNC(=O)N1CCOC(C)(c2cnn(C)c2)C1 (centres undefined) : CoaBC: -0.8696%; MtTrpRS: -4.335%; ClpP1P2: 0.4193%; LiHisRS: 4.712%; TcHisRS: 3.743%
- CNC(=O)COC(=O)c1ccn(-c2ccc(Cl)c(Cl)c2)n1 : CoaBC: 0.3774%; MtTrpRS: -2.313%; ClpP1P2: 9.425%; LiHisRS: 1.77%; TcHisRS: 2.679%
- COc1ccnc(N2CCN(C(=O)Cc3csc(C)n3)CC2)n1 : CoaBC: 1.305%; MtTrpRS: -2.382%; ClpP1P2: -46.22%; LiHisRS: 15.04%; TcHisRS: 2.624%
- COc1cc(C(=O)N(Cc2ccc(F)cc2)C2CC2)cc2c1OCCO2 : CoaBC: 4.723%; MtTrpRS: -1.165%; ClpP1P2: 0.3502%; LiHisRS: 25.71%; TcHisRS: 0%
- CN1CCCN(C(=O)c2nc3sccn3c2-c2ncc[nH]2)CC1 : CoaBC: 3.038%; MtTrpRS: 3.698%; ClpP1P2: -21.69%; LiHisRS: 19.57%; TcHisRS: 3.96%
- OC1(CNCc2noc(Cc3ccccc3)n2)CCCNC1 (centres undefined) : CoaBC: -16.2%; MtTrpRS: -0.5038%; ClpP1P2: -3.889%; LiHisRS: 11.43%; TcHisRS: 1.02%
- Cc1ccc2cc(C(=O)N3CCN(S(C)(=O)=O)CC3)[nH]c2c1 : CoaBC: 2.233%; MtTrpRS: -1.332%; ClpP1P2: 4.768%; LiHisRS: 19.15%; TcHisRS: 8.671%
- O=C(N1CCCO1)[C@@]12CCO[C@@H]1CCN(Cc1ccc(F)cc1)C2 : CoaBC: -3.329%; MtTrpRS: -10.55%; ClpP1P2: -8.879%; LiHisRS: 1.389%; TcHisRS: 9.524%
- CCCc1nc(C)c(C(=O)NCCNc2ncccn2)s1 : CoaBC: 5.606%; MtTrpRS: 0.5303%; ClpP1P2: -7.021%; LiHisRS: 9.649%; TcHisRS: 2.312%
- CN(CC1(C)COC1)C(=O)c1cc(-c2ccnn2C)nc2ccccc12 : CoaBC: 5.502%; MtTrpRS: 0.5208%; ClpP1P2: -21.84%; LiHisRS: 1.439%; TcHisRS: -1.149%
- Cc1nnc2n1CCN(Cc1csc(CC(=O)N(C)C)n1)C2 : CoaBC: 12.14%; MtTrpRS: -3.207%; ClpP1P2: 5.545%; LiHisRS: 9.231%; TcHisRS: -1.149%
- CCCn1ncc(CN(Cc2cccnc2)Cc2cccs2)c1C : CoaBC: -2.375%; MtTrpRS: 7.813%; ClpP1P2: 1.384%; LiHisRS: 18.31%; TcHisRS: 6.923%
- CN(C)C(=O)N1CCOCC2(CCN(c3ncccn3)C2)C1 (centres undefined) : CoaBC: -26.87%; MtTrpRS: 3.185%; ClpP1P2: 1.251%; LiHisRS: 28.3%; TcHisRS: 3.39%
- O=C(C1CCC1)N1C[C@@H](c2ccsc2)[C@@H]2CN(C3CCCCC3)CC[C@@H]21 : CoaBC: 3.263%; MtTrpRS: 28.02%; ClpP1P2: -30.99%; LiHisRS: 12.77%; TcHisRS: 4.135%
- Cn1cc(CN2CCc3nc4sccc4c(=O)n3CC2)cn1 : CoaBC: 5.479%; MtTrpRS: -3.268%; ClpP1P2: -33.3%; LiHisRS: 4.027%; TcHisRS: 2%
- CN(Cc1cccs1)c1cc(N2CCCC2CO)ncn1 (centres undefined) : CoaBC: 12.05%; MtTrpRS: -1.342%; ClpP1P2: 2.418%; LiHisRS: 0%; TcHisRS: 7.182%

The first 2 entries again:

{"compound": "C/N=C1\\c2cc3cc(OC)ccc3n2CCN1Cc1ccccc1", "CoaBC": 14.94, "MtTrpRS": 0.4772, "ClpP1P2": 6.435, "LiHisRS": 31.58, "TcHisRS": 10.98}
{"compound": "Cc1cccc(CN2C(=O)CCC23CCN(c2ncc(F)cn2)CC3)n1", "CoaBC": 1.935, "MtTrpRS": 4.351, "ClpP1P2": 6.343, "LiHisRS": 26.83, "TcHisRS": 8.271}

Measurements from “University of Dundee, Small-Polar-MMV Screening Library” (2021), ChEMBL document CHEMBL3988442.